The target of assay [1] is T1, 3XFLAG::UNC-40 (HEK293T) (C. elegans) (UniProt G5EF96).
T1 sequence: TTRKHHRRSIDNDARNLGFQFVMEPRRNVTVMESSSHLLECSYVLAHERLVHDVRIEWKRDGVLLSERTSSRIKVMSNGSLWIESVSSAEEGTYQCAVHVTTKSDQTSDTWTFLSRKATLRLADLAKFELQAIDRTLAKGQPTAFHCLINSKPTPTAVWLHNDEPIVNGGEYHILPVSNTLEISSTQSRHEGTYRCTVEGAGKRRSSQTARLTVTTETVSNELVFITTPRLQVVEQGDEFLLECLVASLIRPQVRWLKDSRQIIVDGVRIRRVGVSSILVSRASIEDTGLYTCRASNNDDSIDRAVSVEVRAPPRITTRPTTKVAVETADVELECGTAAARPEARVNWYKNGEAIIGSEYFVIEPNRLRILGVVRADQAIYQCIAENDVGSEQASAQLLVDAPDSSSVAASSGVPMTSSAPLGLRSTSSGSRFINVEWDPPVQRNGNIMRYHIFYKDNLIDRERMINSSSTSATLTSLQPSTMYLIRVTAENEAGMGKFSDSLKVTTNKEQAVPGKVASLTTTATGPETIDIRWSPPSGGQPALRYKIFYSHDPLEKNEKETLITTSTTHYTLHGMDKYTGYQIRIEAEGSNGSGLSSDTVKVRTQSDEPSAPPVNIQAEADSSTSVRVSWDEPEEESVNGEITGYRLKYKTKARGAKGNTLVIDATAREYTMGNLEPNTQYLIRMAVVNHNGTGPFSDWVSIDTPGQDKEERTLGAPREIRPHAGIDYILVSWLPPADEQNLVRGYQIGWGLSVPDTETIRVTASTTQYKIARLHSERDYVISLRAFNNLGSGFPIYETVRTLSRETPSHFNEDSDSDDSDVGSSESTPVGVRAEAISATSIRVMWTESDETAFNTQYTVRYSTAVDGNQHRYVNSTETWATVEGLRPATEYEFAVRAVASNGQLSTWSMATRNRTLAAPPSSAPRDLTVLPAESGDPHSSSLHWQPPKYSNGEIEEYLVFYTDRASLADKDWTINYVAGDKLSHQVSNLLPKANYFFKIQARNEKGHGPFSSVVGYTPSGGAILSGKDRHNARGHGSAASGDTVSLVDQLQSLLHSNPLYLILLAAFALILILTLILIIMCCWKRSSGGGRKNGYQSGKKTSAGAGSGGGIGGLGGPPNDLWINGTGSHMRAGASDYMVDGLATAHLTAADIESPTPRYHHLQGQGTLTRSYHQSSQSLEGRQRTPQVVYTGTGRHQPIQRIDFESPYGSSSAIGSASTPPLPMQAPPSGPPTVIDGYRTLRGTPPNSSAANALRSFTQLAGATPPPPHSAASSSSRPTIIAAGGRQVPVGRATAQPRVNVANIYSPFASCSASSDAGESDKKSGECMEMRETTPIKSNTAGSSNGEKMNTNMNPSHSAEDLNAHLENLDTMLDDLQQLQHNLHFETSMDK
Kind of assay: co-IP; FLAG-tagged receptor on transfected HEK293T cells incubated with 10x concentrated conditioned medium holding the HA- and Gaussia luciferase-tagged ligand, 4 hours at 4°C; cells lysed in TNTE buffer (0.5% Triton X-100), anti-FLAG immunoprecipitation, luciferase activity of the washed immunoprecipitate, normalised to receptor level.

Assay [2] has as its target T2, SAX-3::3XFLAG (HEK293T) (C. elegans) (UniProt G5EBF1).
T2 sequence: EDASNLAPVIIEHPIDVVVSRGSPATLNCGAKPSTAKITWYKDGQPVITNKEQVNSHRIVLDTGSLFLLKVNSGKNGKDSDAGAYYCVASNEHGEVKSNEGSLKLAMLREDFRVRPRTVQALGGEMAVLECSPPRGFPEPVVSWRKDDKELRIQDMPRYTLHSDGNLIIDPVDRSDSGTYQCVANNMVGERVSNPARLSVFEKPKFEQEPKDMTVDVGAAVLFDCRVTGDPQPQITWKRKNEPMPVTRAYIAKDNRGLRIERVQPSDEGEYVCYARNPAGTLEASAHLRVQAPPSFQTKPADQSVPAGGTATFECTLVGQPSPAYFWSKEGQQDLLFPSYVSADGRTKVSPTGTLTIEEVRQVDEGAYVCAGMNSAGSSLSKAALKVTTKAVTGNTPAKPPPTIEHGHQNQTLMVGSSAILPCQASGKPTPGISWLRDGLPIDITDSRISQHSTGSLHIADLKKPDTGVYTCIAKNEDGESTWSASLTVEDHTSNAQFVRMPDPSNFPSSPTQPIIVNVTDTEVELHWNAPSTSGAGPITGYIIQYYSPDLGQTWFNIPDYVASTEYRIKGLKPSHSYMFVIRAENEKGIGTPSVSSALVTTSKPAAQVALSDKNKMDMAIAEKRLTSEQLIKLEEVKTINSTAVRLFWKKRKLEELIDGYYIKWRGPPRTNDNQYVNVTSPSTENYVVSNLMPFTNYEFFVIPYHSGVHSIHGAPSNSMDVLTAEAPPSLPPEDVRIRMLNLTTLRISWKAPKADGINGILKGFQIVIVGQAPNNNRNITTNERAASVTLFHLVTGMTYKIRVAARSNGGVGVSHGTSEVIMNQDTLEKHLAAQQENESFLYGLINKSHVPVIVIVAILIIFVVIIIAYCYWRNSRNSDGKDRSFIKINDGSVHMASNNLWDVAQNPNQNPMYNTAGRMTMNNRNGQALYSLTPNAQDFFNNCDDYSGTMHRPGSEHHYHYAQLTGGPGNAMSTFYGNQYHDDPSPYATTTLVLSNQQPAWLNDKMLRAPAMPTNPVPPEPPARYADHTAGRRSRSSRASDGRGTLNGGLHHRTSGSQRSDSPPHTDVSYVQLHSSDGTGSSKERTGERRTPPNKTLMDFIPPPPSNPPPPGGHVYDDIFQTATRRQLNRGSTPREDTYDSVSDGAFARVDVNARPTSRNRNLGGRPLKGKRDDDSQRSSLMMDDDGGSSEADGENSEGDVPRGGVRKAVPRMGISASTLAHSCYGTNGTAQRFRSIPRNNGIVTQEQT
The description is as above.

This note sets out measurements from publication PMC4133157.

No constants are given. Whether binding was seen depends on the method and setting. In cells and extracts the contact can be indirect. For some assays here: A result given as binding can be weak or reduced; the word gives no strength. Sequences can lack the tags named with a protein.

Take “HA::MADD-4B::Gaussia luciferase (C. elegans) (ligand)”: the binding entry is listed as “binds” in assay [1] and “no binding” in assay [2].
